Our source for the binding values is paper doi:10.1101/2023.12.07.570680.

No constants are given. Whether binding was seen depends on the method and setting. Some entries that bind do so weakly or less than the wild type. Where a sequence is shown, tags or fusion partners need not be part of it.

The target in this experiment is T1, EMB1270 (yeast two-hybrid fusion, transit peptide removed) (Arabidopsis thaliana) (UniProt Q5G1S8).
T1 sequence: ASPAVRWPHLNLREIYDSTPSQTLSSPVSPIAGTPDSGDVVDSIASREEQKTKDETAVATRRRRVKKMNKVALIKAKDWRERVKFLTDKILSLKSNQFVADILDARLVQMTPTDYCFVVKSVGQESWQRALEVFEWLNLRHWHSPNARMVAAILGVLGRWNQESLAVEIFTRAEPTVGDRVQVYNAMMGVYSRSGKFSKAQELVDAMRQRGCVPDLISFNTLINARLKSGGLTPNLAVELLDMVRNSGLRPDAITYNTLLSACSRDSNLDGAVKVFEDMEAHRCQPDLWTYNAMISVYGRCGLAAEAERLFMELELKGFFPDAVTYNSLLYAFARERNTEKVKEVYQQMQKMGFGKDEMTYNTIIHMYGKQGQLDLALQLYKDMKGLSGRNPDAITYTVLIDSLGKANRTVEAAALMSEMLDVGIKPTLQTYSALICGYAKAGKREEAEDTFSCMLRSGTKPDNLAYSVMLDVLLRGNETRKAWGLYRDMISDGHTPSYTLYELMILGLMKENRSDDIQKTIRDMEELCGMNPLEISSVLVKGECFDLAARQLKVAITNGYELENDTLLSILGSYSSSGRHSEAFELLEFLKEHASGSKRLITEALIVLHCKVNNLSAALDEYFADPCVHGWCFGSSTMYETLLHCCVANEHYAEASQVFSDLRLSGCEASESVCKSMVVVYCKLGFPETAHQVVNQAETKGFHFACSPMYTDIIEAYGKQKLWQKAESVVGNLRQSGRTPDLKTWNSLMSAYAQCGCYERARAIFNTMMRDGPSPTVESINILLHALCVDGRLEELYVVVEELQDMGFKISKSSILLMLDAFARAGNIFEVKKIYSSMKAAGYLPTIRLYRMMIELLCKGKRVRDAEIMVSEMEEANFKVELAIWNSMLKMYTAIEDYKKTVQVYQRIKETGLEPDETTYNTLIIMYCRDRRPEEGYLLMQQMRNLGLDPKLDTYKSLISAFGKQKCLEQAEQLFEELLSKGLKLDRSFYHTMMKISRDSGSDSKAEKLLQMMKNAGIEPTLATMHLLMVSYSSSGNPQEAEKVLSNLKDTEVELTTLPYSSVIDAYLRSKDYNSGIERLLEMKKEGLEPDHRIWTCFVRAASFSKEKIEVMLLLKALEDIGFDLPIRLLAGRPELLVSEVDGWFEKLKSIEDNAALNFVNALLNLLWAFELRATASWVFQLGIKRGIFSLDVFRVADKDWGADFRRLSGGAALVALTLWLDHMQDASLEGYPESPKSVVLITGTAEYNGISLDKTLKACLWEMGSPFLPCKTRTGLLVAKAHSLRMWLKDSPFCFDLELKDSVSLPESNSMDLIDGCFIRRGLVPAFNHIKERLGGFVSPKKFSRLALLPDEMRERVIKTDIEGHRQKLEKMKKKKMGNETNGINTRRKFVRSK
The experiment is described as follows: two-hybrid.

B1: EMB1006 (yeast two-hybrid fusion, transit peptide removed) (protein, UniProt Q9FGR7 45-723)
chain: ATSPSSSSSSPSIFLSCFDDALPDKIQQPENSTINSEESECEEEDDEEGDDFTDPILKFFKSRTLTSESTADPARESKFSLQKNRRTSWHLAPDFADPETEIESKPEESVFVTNQQTLGVHIPFESGVAREILELAKNLKENQTLGEMLSGFERRVSDTECVEALVMMGESGFVKSCLYFYEWMSLQEPSLASPRACSVLFTLLGRERMADYILLLLSNLPDKEEFRDVRLYNAAISGLSASQRYDDAWEVYEAMDKINVYPDNVTCAILITTLRKAGRSAKEVWEIFEKMSEKGVKWSQDVFGGLVKSFCDEGLKEEALVIQTEMEKKGIRSNTIVYNTLMDAYNKSNHIEEVEGLFTEMRDKGLKPSAATYNILMDAYARRMQPDIVETLLREMEDLGLEPNVKSYTCLISAYGRTKKMSDMAADAFLRMKKVGLKPSSHSYTALIHAYSVSGWHEKAYASFEEMCKEGIKPSVETYTSVLDAFRRSGDTGKLMEIWKLMLREKIKGTRITYNTLLDGFAKQGLYIEARDVVSEFSKMGLQPSVMTYNMLMNAYARGGQDAKLPQLLKEMAALNLKPDSITYSTMIYAFVRVRDFKRAFFYHKMMVKSGQVPDPRSYEKLRAILEDKAKTKNRKDKTAILGIINSKFGRVKAKTKGKKDEFWKYKTNRTTSPGRHRS
On to B1, for which the binding result is “binds”.
